# Test results from PubChem BioAssay AID540256 (National Center for Advancing Translational Sciences (NCATS), 2011).
# Among all 300,000 compounds or so, about 3,700 (1.2%) were called active. This list was built around the results that the source calls inconclusive (neither active nor inactive); the mix of calls is not that of the screen. Calls come from the whole dose curve; tested in HEK293 cells. Potencies of inconclusive entries are doubtful fits and often do not repeat.
# Experiment: qHTS for Inhibitors of binding or entry into cells for Lassa Virus; note: nearly all actives have a fitted effect of over 50% in size
# Settings: Lassa virus pseudotype entry inhibition, cell reporter; activity change, negative = inhibition: at 37.9 µM (top of the series) unless noted
# % is set by controls: 0 for no effect and ±100 for the full control effect; potency is the fitted concentration of half-maximal effect.
SMILES,Potency,"activity change, negative = inhibition"
CCOc1ccc(NC(=O)CN(C)C(=O)CN2C(=O)c3ccc([N+](=O)[O-])cc3C2=O)cc1OCC,inactive,–
Cc1ccc(-c2nnc(SCc3ccccc3)o2)cc1,inactive,–
COc1cccc(NC(=O)C(C)n2c(=O)cc(C(F)(F)F)c3c(C)nn(C)c32)c1 (stereo unspecified),inactive,–
CC/C(=N\N1CCCCCC1)c1c(O)n(-c2ccccc2C)c(=O)[nH]c1=O,active: 10 µM,–
Cc1ccc(C(=O)N/N=C\c2ccc(OC(=O)c3cccc(F)c3)cc2)cn1,inactive,–
CNC(=O)c1cnc2sc(N3CCC(C)CC3)nn2c1=O,inactive,–
Cc1ccc2nc(SCC(=O)NCc3ccc(F)cc3)nc(=O)n2c1,inactive,–
O=[N+]([O-])c1ccccc1/C=N/Nc1nc(N2CCCC2)nc(N2CCCC2)n1,inactive,–
CCOC(=O)c1sc(NC(=O)CC(C)c2ccccc2)nc1C (stereo unspecified),"inconclusive: 2 µM [inhibitor, full curve, poor fit]",–
CNC(=S)N/N=C(\C)c1ccccc1,"inconclusive: 35.5 µM [activator, single point]",–
Cc1ccc2sc(-c3ccc(NC(=O)c4cc(-n5cnnc5)ccc4Cl)cc3)nc2c1,"inconclusive: 16.4 µM [inhibitor, single point]",–
O=C(OCC(=O)N1CCCC1)c1ccc(S(=O)(=O)N2CCOCC2)cc1,inactive,–
CC(=O)Nc1ccc(NC(=O)CSc2nnc(-c3cccnc3)o2)cc1,"inconclusive: 7.08 µM [activator, partial curve]",–
Cc1nnc(NC(=O)c2cccc(S(=O)(=O)N3CCN(C)CC3)c2)s1,inactive,–
COc1cccc(NC(=O)C2CCCN(c3ncnc4onc(C)c34)C2)c1 (stereo unspecified),"inconclusive: 6.31 µM [activator, full curve, poor fit]",–
Cc1cccn2c(=O)nc(SCC(=O)N3CCN(c4ccccc4)CC3)nc12,inactive,–
CCOCC(=O)Nc1nc2ccc(C)cc2s1,active: 11.2 µM,–
O=C(O)CN1C(=O)/C(=C\c2cccc(OC(=O)c3ccco3)c2)SC1=S,"inconclusive: 2.82 µM [activator, partial curve, poor fit]",–
COC(=O)c1sccc1NC(=O)CC1C(=O)NCCN1C(=O)c1ccc(N(C)C)cc1 (stereo unspecified),"inconclusive: 35.5 µM [inhibitor, single point]",–
O=C(Cc1ccc(-c2ccccc2)cc1)NCCS(=O)(=O)N1CCN(c2ccccc2F)CC1,"inconclusive: 6.31 µM [inhibitor, full curve, poor fit]",–
CCOC(=O)c1c(-c2ccc(OC)cc2)csc1NC(=O)CSc1ccccc1,"inconclusive: 15.8 µM [inhibitor, partial curve, poor fit]",–
COC(=O)CN1C(=O)CSc2ccc(S(=O)(=O)Nc3ccc(C)c(Cl)c3)cc21,inactive,–

SMILES,Potency,"activity change, negative = inhibition"
CNC(=O)/C(C#N)=C\c1cc(C)n(-c2ccc(N3CCOCC3)cc2)c1C,inactive,–
N#Cc1c(N)n(C2CCCCC2)c2nc3ccccc3nc12,"inconclusive: 11.2 µM [inhibitor, partial curve, poor fit]",–
CCCn1c(N)c(N(CCOC)C(=O)c2c(CC)noc2C)c(=O)[nH]c1=O,"inconclusive: 0.355 µM [inhibitor, partial curve, poor fit]",–
CC(C)Cn1c(N)c(C(=O)NCCN2CCOCC2)c2nc3ccccc3nc21,"inconclusive: 0.103 µM [inhibitor, full curve, poor fit]",–
CN(C)CCNc1ccc(CO)c2oc3ccc(O)cc3c(=O)c12,"inconclusive: 3.98 µM [inhibitor, partial curve, poor fit]",–
CS(=O)(=O)N(CC(=O)NC1CC2CCC1C2)c1ccc(Oc2ccccc2)cc1 (stereo unspecified),"inconclusive: 1.58 µM [inhibitor, full curve, poor fit]",–
Cc1ccc(NC(=O)COC(=O)c2csc3c2CCC(C)C3)cc1S(=O)(=O)N1CCCCC1 (stereo unspecified),"inconclusive: 22.4 µM [inhibitor, single point]",–
O=C(CCNS(=O)(=O)c1ccc2c(c1)CCN2C(=O)C1CC1)Nc1ccc(OC(F)(F)F)cc1,"inconclusive: 22.4 µM [inhibitor, single point]",–
COc1ccccc1NS(=O)(=O)c1ccc(C)c(C(=O)Nc2cc(C)on2)c1,"inconclusive: 3.98 µM [inhibitor, partial curve, poor fit]",–
CCOC(=O)c1[nH]c(C)c(CN(C(C)=O)c2ccc(OCC)cc2)c1C,"inconclusive: 8.91 µM [inhibitor, single point]",–
COc1cccc(C(=O)Nc2ccc3nc(SCCOc4ccccc4)sc3c2)c1,inactive,–
COc1ccc(N(CC(=O)NCc2ccccc2OC)S(=O)(=O)c2ccccc2[N+](=O)[O-])c(OC)c1,"inconclusive: 3.98 µM [inhibitor, partial curve, poor fit]",–
Cc1ccc(NC(=O)NCC(c2ccccc2)N(C)C)cc1 (stereo unspecified),inactive,–
Cc1onc(-c2ccccc2Cl)c1C(=O)N(C)CC(=O)Nc1ccc(F)c(F)c1F,inactive,–
Cc1cccc(N2CCN(CCCNc3ncnc4onc(-c5ccc(F)cc5)c34)CC2C)c1 (stereo unspecified),inactive,–
CC[N+](C)(CC)CCC(c1ccccc1)C1CCCCC1 (stereo unspecified),"inconclusive: 35.5 µM [inhibitor, partial curve, poor fit]",–
COc1ccc(C(=O)c2c(C)c3cc(C)ccc3n2CC(O)CN2CCOCC2)cc1 (stereo unspecified),"inconclusive: 23.1 µM [inhibitor, partial curve, poor fit]",–
COC(=O)c1ccc2c(=O)[nH]c(COC(=O)c3[nH]c(C)c(C(C)=O)c3C)nc2c1,"inconclusive: 35.5 µM [inhibitor, single point]",–
O=C(Nc1ccc(F)c(F)c1)c1cc(S(=O)(=O)NC2CCCC2)ccc1F,"inconclusive: 2.24 µM [activator, partial curve, poor fit]",–
COc1cc(C(=O)Oc2cccc(Nc3ncnc4ccccc34)c2)cc(OC)c1OC,"inconclusive: 29.1 µM [inhibitor, single point]",–
Clc1nc2sccn2c1/C=N/n1cnc2ccccc21,inactive,–
CCOC(=O)c1ccc(Nc2cc(C)nc(-c3ccccc3O)n2)cc1,"inconclusive: 0.291 µM [inhibitor, full curve, poor fit]",–

# Nothing new here: 14 of the compounds above.
SMILES,Potency,"activity change, negative = inhibition"
CNC(=O)/C(C#N)=C\c1cc(C)n(-c2ccc(N3CCOCC3)cc2)c1C,inactive,–
N#Cc1c(N)n(C2CCCCC2)c2nc3ccccc3nc12,"inconclusive: 11.2 µM [inhibitor, partial curve, poor fit]",–
CCCn1c(N)c(N(CCOC)C(=O)c2c(CC)noc2C)c(=O)[nH]c1=O,"inconclusive: 0.355 µM [inhibitor, partial curve, poor fit]",–
CC(C)Cn1c(N)c(C(=O)NCCN2CCOCC2)c2nc3ccccc3nc21,"inconclusive: 0.103 µM [inhibitor, full curve, poor fit]",–
CN(C)CCNc1ccc(CO)c2oc3ccc(O)cc3c(=O)c12,"inconclusive: 3.98 µM [inhibitor, partial curve, poor fit]",–
CS(=O)(=O)N(CC(=O)NC1CC2CCC1C2)c1ccc(Oc2ccccc2)cc1 (stereo unspecified),"inconclusive: 1.58 µM [inhibitor, full curve, poor fit]",–
Cc1ccc(NC(=O)COC(=O)c2csc3c2CCC(C)C3)cc1S(=O)(=O)N1CCCCC1 (stereo unspecified),"inconclusive: 22.4 µM [inhibitor, single point]",–
O=C(CCNS(=O)(=O)c1ccc2c(c1)CCN2C(=O)C1CC1)Nc1ccc(OC(F)(F)F)cc1,"inconclusive: 22.4 µM [inhibitor, single point]",–
COc1ccccc1NS(=O)(=O)c1ccc(C)c(C(=O)Nc2cc(C)on2)c1,"inconclusive: 3.98 µM [inhibitor, partial curve, poor fit]",–
CCOC(=O)c1[nH]c(C)c(CN(C(C)=O)c2ccc(OCC)cc2)c1C,"inconclusive: 8.91 µM [inhibitor, single point]",–
COc1cccc(C(=O)Nc2ccc3nc(SCCOc4ccccc4)sc3c2)c1,inactive,–
COc1ccc(N(CC(=O)NCc2ccccc2OC)S(=O)(=O)c2ccccc2[N+](=O)[O-])c(OC)c1,"inconclusive: 3.98 µM [inhibitor, partial curve, poor fit]",–
Cc1ccc(NC(=O)NCC(c2ccccc2)N(C)C)cc1 (stereo unspecified),inactive,–
Cc1onc(-c2ccccc2Cl)c1C(=O)N(C)CC(=O)Nc1ccc(F)c(F)c1F,inactive,–

# More structures follow.

SMILES,Potency,"activity change, negative = inhibition"
Cc1cc(NS(=O)(=O)c2ccc(NC(=O)COc3cc(C)c(Br)cc3C(C)C)cc2)no1,"inconclusive: 3.16 µM [activator, full curve, poor fit]",–
CC(C)CCNC(=O)c1ccc2nc(Cc3ccccc3)oc2c1,"inconclusive: 1.58 µM [inhibitor, partial curve, poor fit]",–
O=C(Nc1ccc2oc(-c3cccnc3)nc2c1)c1ccco1,"inconclusive: 35.5 µM [activator, single point]",–
CSc1nnc(-c2ccccc2N=Cc2c(C)[nH]n(-c3ccccc3)c2=O)c(=O)[nH]1,"inconclusive: 0.708 µM [inhibitor, single point]",–
CCCC1Oc2ccccc2C(=O)N(CC(=O)c2ccc3c(c2)OCCO3)C1=O (stereo unspecified),"inconclusive: 3.16 µM [activator, full curve, poor fit]",–
Cc1ccc(-n2ncc(C(=O)NCCN3CCC(Cc4ccccc4)CC3)c2C2CCN(C(=O)OC(C)(C)C)CC2)cc1,"inconclusive: 35.5 µM [inhibitor, single point]",–
O=C(NC1CCCCC1)c1noc2c1CCCCC2,"inconclusive: 20.6 µM [inhibitor, single point]",–
O=C(Nc1ncc(S(=O)(=O)c2ccc([N+](=O)[O-])cc2)s1)c1cccnc1,–,inconclusive: 21.4% [activator]
Cc1cc(NC(=O)COC(=O)c2ccc(NS(=O)(=O)c3ccc(C)c(C)c3)cc2)no1,inactive,–
COc1cc(SC)ccc1C(=O)Nc1ccc2ncccc2c1,"inconclusive: 0.708 µM [activator, single point]",–
COc1ccc(C(=Cc2cc(OC)c(OC)cc2[N+](=O)[O-])C(=O)O)cc1,inactive,–
COc1ccc(/C(N)=N/OC(=O)Cc2ccc(OC)c(OC)c2)cc1,inactive,–
COc1cc(NC(=O)COC(=O)/C=C/c2ccccc2Cl)cc(OC)c1,"inconclusive: 4.11 µM [inhibitor, full curve, poor fit]",–
Cc1ccc(/C(N)=N/OC(=O)c2ccc(C)cc2Cl)cc1,"inconclusive: 7.94 µM [inhibitor, partial curve, poor fit]",–
Fc1ccc(-c2nc(-c3cccs3)[nH]c2-c2ccc(F)cc2)cc1,"inconclusive: 35.5 µM [inhibitor, single point]",–
C[C@H]1[C@@H](c2ccccc2)Oc2c(Cl)cccc2S(=O)(=O)N1Cc1cccc(F)c1,"inconclusive: 15.8 µM [inhibitor, partial curve, poor fit]",–
COCC(C)n1c(C)cc(C(=O)COC(=O)c2cc(=O)[nH]c3ccccc23)c1C (stereo unspecified),"inconclusive: 25.1 µM [inhibitor, single point]",–
CCOc1ccccc1-c1cc(C(=O)N/N=C/c2cccnc2)c2ccccc2n1,"inconclusive: 35.5 µM [inhibitor, single point]",–
O=C(NN=Cc1ccc(N(CCCl)CCCl)cc1)c1cccc([N+](=O)[O-])c1,"inconclusive: 7.08 µM [inhibitor, partial curve, poor fit]",–
CN(CC(=O)NCCc1ccccc1)S(=O)(=O)c1ccccc1,"inconclusive: 35.5 µM [activator, single point]",–
O=C(O)c1ccc(OCCN2CCCC2=O)cc1,"inconclusive: 0.355 µM [inhibitor, partial curve, poor fit]",–
COc1ccc(NC(=O)C(=O)NCCCn2ccnc2)cc1,"inconclusive: 11.2 µM [inhibitor, partial curve, poor fit]",–
